From PubChem BioAssay AID2685 (National Center for Advancing Translational Sciences (NCATS), 2010) come the findings set out here.

Some of the results follow. Further columns of the screen follow, without active or inactive calls. Most of these compounds were active or inconclusive in the main read-out, so they are no random draw. Potencies come from curve fits of mixed quality, noted in brackets.

The experiment in a line: qHTS Assay for Lipid Storage Modulators in Drosophila S3 Cells.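 For cell number change: cells counted by Cell Tracker Red CMTPX staining in the red channel.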 To be noted: BODIPY lipid droplet fluorescence, 18-24 h; for cell number change: measured here: cell count max response, cells fed with added oleic acid. The essentials:
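Drosophila S3 cells loaded with oleic acid (400 uM, as added) and compounds at several concentrations; lipid droplets imaged by 488-nm laser-scanning cytometry, 500–530 nm intensity and object ratio to cell channel. Percent activity normalized to 20 uM Triacsin C.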
Background: Quantitative high-throughput screening tests each substance at several concentrations.

The mark [1] stands for this setting: measured here: lipid fluorescence (Fed channel) AC50, cells fed with added oleic acid.
Where [2] appears, read: measured here: cell number channel AC50, cells fed with added oleic acid.

In general, AC50 refers to the midpoint of the concentration-response curve, whichever way the signal moves. Read a high AC50 as weaker potency. `O=C(CCN1C(=O)c2ccccc2C1=O)Nc1cccc(S(=O)(=O)N2CCCCC2)c1`: the AC50 under setting [1] was 6.51 µM [rising, partial curve].

On to `Cc1cccc(C(=O)NNC(=S)NC(=O)c2cccs2)c1`, for which the cell number change is -32.2%. The AC50 under setting [2] is 32.6 µM [falling, single point]. For the same compound, the AC50 under setting [1] is 29.1 µM [falling, single point].

Take `CCCc1cc(C(=O)Nc2cc(OC)ccc2OC)cs1`: the cell number change turned out to be 45.2%. Under setting [2], the AC50 was 12.6 µM [rising, partial curve].

For the compound `CCOC(=O)COc1nc(C)c(Br)c(OC)n1`, the cell number change worked out at 56.8%. Also, under setting [2], the AC50 was 16.4 µM [rising, single point]. In addition, under setting [1], the concentration at half-maximal activity (AC50) was 7.31 µM [rising, partial curve].

Turning to `O=C(c1ccc(NS(=O)(=O)c2ccc3[nH]c(=O)[nH]c3c2)cc1)N1CCN(c2ccccc2)CC1`, the cell number change came to 8.08%. Further, under setting [1], the AC50 was 2.06 µM [rising, partial curve, poor fit].

Consider `COc1cc(C(=O)N2CCN(C)C(C)C2)ccc1OC1CCN(C(C)=O)CC1` (configuration not stated), for which the cell number change was -21.6%. Under setting [1], the AC50 was 1.46 µM [falling, partial curve, poor fit].

Consider `CCn1c(SCC(=O)N2CCc3ccccc32)nnc1-c1c[nH]c2ccccc12`, for which the cell number change was -49%. The concentration at half-maximal activity (AC50) under setting [2] is 5.8 µM [falling, full curve]. In addition, the AC50 under setting [1] is 5.17 µM [falling, full curve].

As to `CC(C)(C)N1CC(C(=O)O)CC1=O` (configuration not stated), the cell number change was 22.3%. For the same compound, the AC50 under setting [1] is 18.4 µM [falling, single point].

Regarding `COc1ccccc1NS(=O)(=O)CC12CCC(CC1=O)C2(C)C` (configuration not stated), the cell number change was -0.365%. The AC50 under setting [1] is 1.84 µM [rising, full curve].

On to `C=CCc1cc(/C=C/c2nc(O)c([N+](=O)[O-])c(=O)[nH]2)cc(OC)c1O`, for which the cell number change is -20.3%. Further, the half-maximal activity concentration (AC50) under setting [2] was 0.731 µM [falling, full curve, poor fit]. Further, the concentration at half-maximal activity (AC50) under setting [1] is 23.1 µM [falling, single point].

For `CCOC(=O)C(NC(=O)c1ccccc1Cl)(Nc1ccc(C(F)(F)F)cc1)C(F)(F)F` (configuration not stated), the cell number change was -45.4%. In addition, under setting [2], the AC50 was 18.4 µM [falling, single point]. For the same compound, the AC50 under setting [1] was 5.17 µM [falling, full curve].

For the compound `CCCCN(CCCC)C(=O)c1cc(Cl)ccc1[N+](=O)[O-]`, the cell number change is 130%. Further, the concentration at half-maximal activity (AC50) under setting [2] was 25.9 µM [rising, partial curve]. The concentration at half-maximal activity (AC50) under setting [1] is 6.51 µM [falling, single point].

Turning to `CCCN1Cc2cccc(C(=O)NCc3ccc4c(c3)OCO4)c2C1=O`, the cell number change was 4.33%. Moreover, the concentration at half-maximal activity (AC50) under setting [1] was 0.461 µM [rising, full curve].

On to `COc1ccc(NC(=O)CSc2ccc3c4c(cccc24)C(=O)c2ccccc2-3)cc1`, for which the cell number change amounted to 28.2%. Moreover, the half-maximal activity concentration (AC50) under setting [1] is 3.66 µM [falling, full curve, poor fit].

In the case of `COc1ccc(C(=O)C2CCN(C(=O)c3ccc(F)cc3)CC2)cc1`, the cell number change was -16.5%. Moreover, the half-maximal activity concentration (AC50) under setting [1] is 0.58 µM [rising, full curve].

Take `C=CCOc1ccc(/C=N/NC(=O)c2c(C)nc3ccc(Cl)cn23)cc1`: the cell number change turned out to be 20.7%. The AC50 under setting [1] is 0.206 µM [rising, full curve, poor fit].

`CCC(C)n1c(/C=C/c2ccccc2)nc2ccccc21` (configuration not stated): the cell number change came out at 10.1%. Moreover, the half-maximal activity concentration (AC50) under setting [2] was 0.651 µM [falling, single point]. The AC50 under setting [1] was 1.16 µM [falling, single point].

With `CCOc1ccc(NC(=O)C(CC(=O)O)Cc2ccc(Br)cc2)cc1` (configuration not stated), the cell number change was -11.9%. In addition, under setting [1], the concentration at half-maximal activity (AC50) is 4.11 µM [falling, full curve].

Turning to `CCCCc1cc(=O)oc2cc(OCC(=O)NCc3ccccn3)c(Cl)cc12`, the cell number change was -16.2%. In addition, under setting [2], the concentration at half-maximal activity (AC50) is 4.61 µM [falling, partial curve, poor fit]. Under setting [1], the AC50 was 2.31 µM [falling, partial curve].

Take `Cc1ccc(S(=O)(=O)N2CCC(=O)CC2)cc1`: the cell number change was -32.1%. Moreover, the concentration at half-maximal activity (AC50) under setting [2] was 1.26 µM [falling, full curve]. For the same compound, under setting [1], the half-maximal activity concentration (AC50) was 1 µM [falling, full curve].

Turning to `COCCCNC(=S)NNC(=O)c1ccccc1Br`, the cell number change was found to be 31.5%. Also, the AC50 under setting [1] is 5.17 µM [rising, single point].

Take `COc1ccc2c(c1)c(=O)c(C(=O)c1ccccc1)cn2Cc1ccccc1`: the cell number change turned out to be 15.1%. In addition, under setting [2], the concentration at half-maximal activity (AC50) was 0.0231 µM [rising, full curve, poor fit]. The half-maximal activity concentration (AC50) under setting [1] was 0.651 µM [rising, partial curve, poor fit].

In the case of `COc1ccc(C)cc1-n1nnnc1SCC(=O)N1CCC(C(=O)Nc2nccs2)CC1`, the cell number change was -19.5%.

On to `Cc1ccc(NC(=O)CSC2=C(C#N)C(c3ccco3)CC(=O)N2)cc1` (configuration not stated), for which the cell number change was 4.17%. The AC50 under setting [1] was 0.58 µM [rising, single point].

In the case of `O=C(NC(CO)Cc1ccc([N+](=O)[O-])cc1)C(Cl)Cl` (configuration not stated), the AC50 by setting is: under setting [2], 6.51 µM [rising, single point]; under setting [1], 3.66 µM [rising, single point].

With `Cc1ccc2occ(C(=O)c3ccco3)c(=O)c2c1`, the cell number change was found to be 55.6%. Besides, the AC50 under setting [2] was 29.1 µM [rising, single point].

Regarding `COc1ccccc1CNC(=O)CC1C(=O)NCCN1C1Cc2ccccc2C1` (configuration not stated), the cell number change was -6.93%. The AC50 under setting [1] was 1.84 µM [falling, single point].

Regarding `OC1(Cc2cc(-c3ccccc3)no2)CCN(CCCc2ccccc2)CC1`, the cell number change amounted to 27.4%. Moreover, the AC50 under setting [1] was 23.1 µM [rising, single point].

With `COc1ccc(S(=O)(=O)N2CCCC2)c(C)c1C`, the half-maximal activity concentration (AC50) under setting [1] is 3.66 µM [rising, single point].

Take `CCCc1cc(=O)oc2cc(C)cc(OC(C)C(=O)NCC(O)c3ccccc3)c12` (configuration not stated): the cell number change was 23.9%.

In the case of `Cc1ccnc(NC(=O)CCC(=O)N(CC(=O)NCc2ccc(F)cc2)CC2CCCO2)c1` (configuration not stated), the cell number change is -5.41%. Moreover, the concentration at half-maximal activity (AC50) under setting [1] is 6.51 µM [rising, partial curve, poor fit].

`CC(=O)NC(Cc1ccccc1)C(=O)OCC(=O)c1ccccc1` (configuration not stated): the cell number change was -5.4%. The AC50 under setting [2] is 2.91 µM [rising, single point]. In addition, the AC50 under setting [1] is 6.51 µM [rising, single point].

Take `O=C(Oc1ccc(=O)n(-c2ccccc2)n1)c1ccc(F)cc1`: the cell number change was -5.67%. Besides, the AC50 under setting [1] was 1.16 µM [falling, single point].

For `Cc1ccc(OCC(=O)N2CCc3ccccc32)cc1`, the cell number change came out at 66.7%. Further, the AC50 under setting [2] was 18.4 µM [rising, single point].

For `O=C(/C=C/c1ccc(Cl)cc1)NCc1ccco1`, the AC50 under setting [1] was 1.84 µM [rising, partial curve].

As for `CCCCN(CC(=O)Nc1cccc(S(=O)(=O)N2CCCC2)c1)Cc1nc2ccccc2c(=O)[nH]1`, under setting [1], the concentration at half-maximal activity (AC50) was 29.1 µM [falling, single point].

As to `O=C(CC1C(=O)NCCN1Cc1c(F)cccc1Cl)NC1CCCC1` (configuration not stated), the cell number change was 6.8%. In addition, the AC50 under setting [1] was 0.146 µM [rising, full curve, poor fit].

As to `CC(C)CC(=O)Nc1nnc(S(=O)(=O)N2CCc3ccccc32)s1`, the cell number change is 18.9%. Also, the half-maximal activity concentration (AC50) under setting [1] was 25.9 µM [rising, single point].

As to `CCOC(=O)C1(Cc2ccccc2Cl)CCN(S(C)(=O)=O)CC1`, the concentration at half-maximal activity (AC50) under setting [1] was 1.64 µM [rising, partial curve, poor fit].

Turning to `CC1CCCN(CC(O)COc2ccc(-c3ccccc3)cc2)C1` (configuration not stated), the cell number change was found to be 14.5%.

For `Cc1ccc(C(=O)N2CC(=O)Nc3ccc(F)cc3C2c2ccccc2)cc1[N+](=O)[O-]` (configuration not stated), the cell number change was determined as 5.46%. Besides, the AC50 under setting [1] is 0.184 µM [rising, full curve, poor fit].

For the compound `COC(=O)c1ccccc1NC(=O)CN1CCN(Cc2ccccc2)CC1`, the cell number change is -25%.

In the case of `O=C(CSc1nc2ccccc2c(=O)[nH]1)Nc1ccc(Br)cc1`, the cell number change came to 24.3%. Also, the AC50 under setting [1] is 29.1 µM [rising, single point].

Regarding `O=C(COc1ccccc1)N/N=C/c1ccc(O[C@@H]2O[C@H](CO)[C@@H](O)[C@H](O)[C@H]2O)cc1`, the cell number change is -16.7%. Besides, under setting [2], the AC50 was 0.0164 µM [falling, full curve, poor fit].

As for `CCCNC(=O)c1ccccc1NS(=O)(=O)c1ccc2c(c1)OCCO2`, the cell number change came to 2.84%. For the same compound, the AC50 under setting [1] is 13 µM [rising, partial curve].

`Cc1ccc(N2C(S)=C(C#N)C(=O)NC23CCCCC3)cc1`: the cell number change is -7.14%. Besides, the concentration at half-maximal activity (AC50) under setting [2] was 4.11 µM [rising, single point]. Under setting [1], the half-maximal activity concentration (AC50) was 29.1 µM [falling, single point].

Turning to `COc1ccc(NC(=S)NCc2ccccn2)cc1OC`, the cell number change is 27.6%. Moreover, the AC50 under setting [1] was 0.112 µM [rising, full curve, poor fit].

Turning to `N#CCCN(C(=O)Cn1nc(C(=O)O)c2ccccc2c1=O)c1ccccc1`, the cell number change came to 19.8%. Also, the AC50 under setting [1] is 2.31 µM [falling, partial curve, poor fit].

As to `CCCCN(C)CCCNC(=O)C1CC(=O)N(Cc2ccc(OC)cc2)C1` (configuration not stated), the cell number change was 5.29%. Also, the concentration at half-maximal activity (AC50) under setting [2] was 0.00517 µM [falling, full curve, poor fit]. The AC50 under setting [1] was 4.11 µM [falling, full curve, poor fit].

`CC(C)(C)OC(=O)N/N=C\c1ccc(OC(=O)c2cccs2)cc1`: the cell number change was -30.6%. In addition, under setting [2], the AC50 was 32.6 µM [falling, partial curve, poor fit]. In addition, the half-maximal activity concentration (AC50) under setting [1] was 36.6 µM [falling, partial curve, poor fit].

As to `C=C1CN(Cc2ccccc2)S(=O)(=O)c2ccccc21`, the cell number change stood at 23.5%. For the same compound, the AC50 under setting [1] was 11.6 µM [rising, partial curve].

With `CCC1Oc2ccccc2N(CC(=O)NCCCN2CCCC2)C1=O` (configuration not stated), the cell number change was 14.4%.

Take `OCC[C@H]1C[C@H](O)[C@@H](O)[C@]2(OCc3ccccc32)O1`: the cell number change was -6.2%. The AC50 under setting [1] was 0.92 µM [rising, full curve, poor fit].

On to `Cc1ccc(C(C[N+](=O)[O-])Sc2ccc(N)cc2)cc1` (configuration not stated), for which the cell number change was -62%. Under setting [2], the AC50 was 14.6 µM [falling, partial curve, poor fit]. The AC50 under setting [1] was 9.2 µM [falling, partial curve, poor fit].

For the compound `Cc1ccc(NS(=O)(=O)c2c(C)[nH]c(C)c2C(=O)N2CCCC2)cc1`, the cell number change turned out to be 17.8%. For the same compound, under setting [1], the AC50 is 0.517 µM [rising, single point].

As for `O=C1CCN(Cc2ccccc2)S(=O)(=O)c2ccc(F)cc21`, the cell number change was -12.3%. Under setting [1], the AC50 is 2.91 µM [rising, partial curve, poor fit].
